Reference: US11484608B2, “Non-invasive assessment of hepatic mitochondrial metabolism by positional isotopomer NMR tracer analysis (PINTA)” (YALE UNIVERSITY, priority 2017, dated 2022)

Tested on: hepatic glucose production, VPC and VCS (InsP3R-I signaling)
Assay: Acute 2 hr glucagon infusion in WT and liver-specific InsP3R-I KO mice
Assay type: in vivo, mouse
From the text: All protocols were approved by the Yale University Animal Care and Use Committee. Liver-specific InsP3R-I KO mice were generated as described (Feriod, et al. Hepatology Communications 1, 23-35, 2017) and in all experiments, littermates were studied at 10-12 weeks of age. They were fed standard chow (Teklad #2018) and housed on a 12 hr light/dark cycle in the Yale Animal Resources Center. To knock down ATGL in a liver-specific manner, an adeno-associated virus targeting ATGL (Vector BioLabs, 10^12 gc per mouse) was administered by retro-orbital injection four weeks prior to studies. Male mice were used for in vivo studies, while female mice were used for in vitro studies, unless otherwise specified. One week prior to in vivo studies, mice underwent surgery under isoflurane anesthesia to place a catheter in the jugular vein. Post-surgical recovery was confirmed by regaining the pre-surgical body weight prior to any in vivo studies. They were fasted overnight, unless otherwise stated, prior to in vivo studies. […] Mice were euthanized using IV pentobarbital at the conclusion of the terminal study.
In the rat studies, blood was collected from the jugular venous catheter. In both species, samples were immediately centrifuged (12,000 rpm) to separate plasma from red blood cells. PINTA analysis of hepatic mitochondrial fluxes was employed in both rats and mice (see Example 1). Briefly, mice were infused with a two-hour primed (5 min, 3×)-continuous infusion of [3-^13C] lactate (40 μmol kg^−1 min^−1) and [1,2,3,4,5,6,6-^2H7] glucose (0.1 mg kg^−1 min^−1). Rats were infused with lactate at the same rate, as well as [3-^3H] glucose (0.1 mCi kg^−1 min^−1). At the conclusion of the study, animals were euthanized with IV pentobarbital.
Total glucose turnover (i.e. hepatic glucose production) was measured by determining the specific activity of [^3H] glucose in plasma using a scintillation counter, and the VPC/VHGP ratio was calculated using the equation
[formula] and calculated absolute VCS by dividing VPC by VPC/VCS. The derivations of each equation are described in detail in Example 1. The possible contribution of [^13C] bicarbonate to label the TCA cycle was corrected for as follows. Liver [^13C] bicarbonate enrichment was measured by GC-MS (HP-1 column: 12 m×0.2 mm×0.33 μm film, isothermal: 110° C.). Liver tissue (˜[…]) was placed in a GC-MS vial, purged with N2 gas, and sealed. To each sample, a saturated aqueous solution of citric acid (50 μl) was injected into the vial through the cap. After ten minutes, CO2 was sampled from the head-space and ions with m/z 44 and 45 daltons were monitored using electron impact ionization.
Plasma glucose concentrations were measured using a YSI Glucose Analyzer. […] Plasma NEFA concentrations were measured using the Wako NEFA assay, while plasma glycerol and plasma and liver amino acid concentrations were measured by GC/MS. […] Protein concentrations were measured by Western blot, using antibodies from Santa Cruz (PC, PEPCK, CAMKII), Cell Signaling (ATGL, pCAMKIV, CAMKIV, pCRTC2, CRTC2, pACC, ACC, pAMPK, AMPK, pHSL, HSL, GAPDH, and β-actin), Novus Biologicals (pCAMKII), Abcam (pATGL), LSBio (pInsP3R-I), and BD Transduction Laboratories (InsP3R-II, InsP3R-III, PKCε).

Substance: glucagon
- Liver Glutamate/glutamine (InsP3R1 KO +glucagon): 0.93 ± 0.10 µmol/g
- Liver Glycine (InsP3R1 KO +glucagon): 0.22 ± 0.06^+ μmol/g
- Liver Isoleucine (InsP3R1 KO +glucagon): 0.062 ± 0.011 µmol/g
- Liver Lactate (InsP3R1 KO +glucagon): 0.94 ± 0.24 µmol/g
- Liver Leucine (InsP3R1 KO +glucagon): 0.90 ± 0.42 µmol/g
- Liver Phenylalanine (InsP3R1 KO +glucagon): 0.091 ± 0.032 µmol/g
- Liver Serine (InsP3R1 KO +glucagon): 0.016 ± 0.005^+ μmol/g
- Plasma Aspartate/asparagine (InsP3R1 KO after glucagon): 0.055 ± 0.023 mM
- Plasma Glutamate/glutamine (InsP3R1 KO after glucagon): 0.27 ± 0.06 mM
- Plasma Isoleucine (InsP3R1 KO after glucagon): 0.54 ± 0.06 mM
- Plasma Lactate (InsP3R1 KO after glucagon): 1.31 ± 0.10 mM
- Plasma Leucine (InsP3R1 KO after glucagon): 0.66 ± 0.08 mM
- Plasma Phenylalanine (InsP3R1 KO after glucagon): 0.090 ± 0.007 mM
- Plasma Serine (InsP3R1 KO after glucagon): 0.037 ± 0.005 mM
- Liver Glutamate/glutamine (WT +glucagon): 0.74 ± 0.10 µmol/g
- Liver Glycine (WT +glucagon): 0.13 ± 0.03 µmol/g
- Liver Isoleucine (WT +glucagon): 0.033 ± 0.004 µmol/g
- Liver Lactate (WT +glucagon): 0.80 ± 0.28 µmol/g
- Liver Leucine (WT +glucagon): 0.22 ± 0.02 µmol/g
- Liver Phenylalanine (WT +glucagon): 0.040 ± 0.004 µmol/g
- Liver Serine (WT +glucagon): 0.007 ± 0.002 µmol/g
- Plasma Aspartate/asparagine (WT after glucagon): 0.013 ± 0.004 mM
- Plasma Glutamate/glutamine (WT after glucagon): 0.30 ± 0.01 mM
- Plasma Isoleucine (WT after glucagon): 0.39 ± 0.02 mM
- Plasma Lactate (WT after glucagon): 1.59 ± 0.39 mM
- Plasma Leucine (WT after glucagon): 0.48 ± 0.02 mM
- Plasma Phenylalanine (WT after glucagon): 0.065 ± 0.003 mM
- Plasma Serine (WT after glucagon): 0.032 ± 0.003 mM
